We go through one substance from patent US20260071233A1.

This experiment concerns the target T1, Recombinant rat IFN-γ (rat) (UniProt P01581).
T1 sequence: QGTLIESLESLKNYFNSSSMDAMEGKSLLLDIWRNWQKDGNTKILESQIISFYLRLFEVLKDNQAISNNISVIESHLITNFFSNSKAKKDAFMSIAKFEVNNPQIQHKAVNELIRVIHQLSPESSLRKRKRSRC
Briefly: competitive ELISA, figure legend of FIG. 32A.

These are yes or no findings as the source states them, for the method shown. Some results given as binding are weak or reduced against the parent protein; the word gives no strength.

As to “VACV encoded B8R in filtered supernatant from VACV IL-12 infected HeLa cells (from UniProt P21004 14-272)”, the binding entry is “binds”.
